Laboratory results: the supplement of paper PMC10849652
This is one part of the list.

By UniProt entry, the sequences of proteins in these tests, tags left out. Where a name states a change or a piece, a line headed by the entry shows the natural chain unless it says otherwise.
UniProt Q14773: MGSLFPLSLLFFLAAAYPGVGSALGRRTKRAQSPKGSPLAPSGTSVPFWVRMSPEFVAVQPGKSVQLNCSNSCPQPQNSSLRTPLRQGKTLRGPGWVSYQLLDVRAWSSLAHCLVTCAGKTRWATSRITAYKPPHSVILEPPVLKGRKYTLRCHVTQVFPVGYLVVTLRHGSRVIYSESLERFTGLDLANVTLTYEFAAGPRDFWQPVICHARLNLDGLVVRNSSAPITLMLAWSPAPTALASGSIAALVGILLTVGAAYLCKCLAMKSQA
UniProt P31943: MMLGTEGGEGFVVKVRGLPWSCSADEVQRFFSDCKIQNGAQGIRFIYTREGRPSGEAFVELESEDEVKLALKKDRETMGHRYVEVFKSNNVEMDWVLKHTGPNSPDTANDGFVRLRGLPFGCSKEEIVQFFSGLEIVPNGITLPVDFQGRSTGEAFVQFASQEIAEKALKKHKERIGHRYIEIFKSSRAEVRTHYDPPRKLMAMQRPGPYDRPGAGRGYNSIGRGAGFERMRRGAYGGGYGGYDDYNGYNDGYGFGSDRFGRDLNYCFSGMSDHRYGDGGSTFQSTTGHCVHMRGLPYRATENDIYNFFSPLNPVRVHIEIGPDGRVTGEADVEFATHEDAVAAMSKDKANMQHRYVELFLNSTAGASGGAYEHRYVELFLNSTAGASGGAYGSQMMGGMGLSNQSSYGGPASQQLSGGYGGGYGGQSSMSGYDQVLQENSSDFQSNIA
UniProt P17482: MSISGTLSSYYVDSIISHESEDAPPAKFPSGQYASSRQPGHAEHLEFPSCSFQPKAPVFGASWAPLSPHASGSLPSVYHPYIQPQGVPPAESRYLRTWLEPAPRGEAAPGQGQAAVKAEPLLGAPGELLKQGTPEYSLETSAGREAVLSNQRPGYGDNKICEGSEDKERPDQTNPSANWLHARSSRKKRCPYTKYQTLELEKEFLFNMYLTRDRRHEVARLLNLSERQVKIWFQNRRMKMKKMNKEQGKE
UniProt Q1KMD3: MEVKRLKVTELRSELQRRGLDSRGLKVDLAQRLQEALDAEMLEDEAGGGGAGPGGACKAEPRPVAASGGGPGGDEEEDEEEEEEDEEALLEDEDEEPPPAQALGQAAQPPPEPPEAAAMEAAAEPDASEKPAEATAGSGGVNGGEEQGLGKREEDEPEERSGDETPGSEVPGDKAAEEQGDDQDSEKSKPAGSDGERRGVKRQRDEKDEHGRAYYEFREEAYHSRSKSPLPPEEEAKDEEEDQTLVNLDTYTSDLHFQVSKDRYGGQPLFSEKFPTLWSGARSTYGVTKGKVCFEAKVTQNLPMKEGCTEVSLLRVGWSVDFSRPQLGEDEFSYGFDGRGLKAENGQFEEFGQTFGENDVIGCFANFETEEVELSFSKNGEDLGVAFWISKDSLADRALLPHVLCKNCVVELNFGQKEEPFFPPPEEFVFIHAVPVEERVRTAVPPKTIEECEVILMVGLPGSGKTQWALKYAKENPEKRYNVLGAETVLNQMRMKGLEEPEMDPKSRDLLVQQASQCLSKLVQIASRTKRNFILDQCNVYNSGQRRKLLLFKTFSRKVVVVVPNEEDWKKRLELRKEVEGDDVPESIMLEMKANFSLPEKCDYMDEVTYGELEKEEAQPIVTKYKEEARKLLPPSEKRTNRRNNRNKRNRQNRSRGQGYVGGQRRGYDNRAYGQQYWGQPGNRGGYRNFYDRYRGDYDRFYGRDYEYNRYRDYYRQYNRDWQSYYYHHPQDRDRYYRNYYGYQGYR
UniProt Q7Z6Z7, whole entry, looked up: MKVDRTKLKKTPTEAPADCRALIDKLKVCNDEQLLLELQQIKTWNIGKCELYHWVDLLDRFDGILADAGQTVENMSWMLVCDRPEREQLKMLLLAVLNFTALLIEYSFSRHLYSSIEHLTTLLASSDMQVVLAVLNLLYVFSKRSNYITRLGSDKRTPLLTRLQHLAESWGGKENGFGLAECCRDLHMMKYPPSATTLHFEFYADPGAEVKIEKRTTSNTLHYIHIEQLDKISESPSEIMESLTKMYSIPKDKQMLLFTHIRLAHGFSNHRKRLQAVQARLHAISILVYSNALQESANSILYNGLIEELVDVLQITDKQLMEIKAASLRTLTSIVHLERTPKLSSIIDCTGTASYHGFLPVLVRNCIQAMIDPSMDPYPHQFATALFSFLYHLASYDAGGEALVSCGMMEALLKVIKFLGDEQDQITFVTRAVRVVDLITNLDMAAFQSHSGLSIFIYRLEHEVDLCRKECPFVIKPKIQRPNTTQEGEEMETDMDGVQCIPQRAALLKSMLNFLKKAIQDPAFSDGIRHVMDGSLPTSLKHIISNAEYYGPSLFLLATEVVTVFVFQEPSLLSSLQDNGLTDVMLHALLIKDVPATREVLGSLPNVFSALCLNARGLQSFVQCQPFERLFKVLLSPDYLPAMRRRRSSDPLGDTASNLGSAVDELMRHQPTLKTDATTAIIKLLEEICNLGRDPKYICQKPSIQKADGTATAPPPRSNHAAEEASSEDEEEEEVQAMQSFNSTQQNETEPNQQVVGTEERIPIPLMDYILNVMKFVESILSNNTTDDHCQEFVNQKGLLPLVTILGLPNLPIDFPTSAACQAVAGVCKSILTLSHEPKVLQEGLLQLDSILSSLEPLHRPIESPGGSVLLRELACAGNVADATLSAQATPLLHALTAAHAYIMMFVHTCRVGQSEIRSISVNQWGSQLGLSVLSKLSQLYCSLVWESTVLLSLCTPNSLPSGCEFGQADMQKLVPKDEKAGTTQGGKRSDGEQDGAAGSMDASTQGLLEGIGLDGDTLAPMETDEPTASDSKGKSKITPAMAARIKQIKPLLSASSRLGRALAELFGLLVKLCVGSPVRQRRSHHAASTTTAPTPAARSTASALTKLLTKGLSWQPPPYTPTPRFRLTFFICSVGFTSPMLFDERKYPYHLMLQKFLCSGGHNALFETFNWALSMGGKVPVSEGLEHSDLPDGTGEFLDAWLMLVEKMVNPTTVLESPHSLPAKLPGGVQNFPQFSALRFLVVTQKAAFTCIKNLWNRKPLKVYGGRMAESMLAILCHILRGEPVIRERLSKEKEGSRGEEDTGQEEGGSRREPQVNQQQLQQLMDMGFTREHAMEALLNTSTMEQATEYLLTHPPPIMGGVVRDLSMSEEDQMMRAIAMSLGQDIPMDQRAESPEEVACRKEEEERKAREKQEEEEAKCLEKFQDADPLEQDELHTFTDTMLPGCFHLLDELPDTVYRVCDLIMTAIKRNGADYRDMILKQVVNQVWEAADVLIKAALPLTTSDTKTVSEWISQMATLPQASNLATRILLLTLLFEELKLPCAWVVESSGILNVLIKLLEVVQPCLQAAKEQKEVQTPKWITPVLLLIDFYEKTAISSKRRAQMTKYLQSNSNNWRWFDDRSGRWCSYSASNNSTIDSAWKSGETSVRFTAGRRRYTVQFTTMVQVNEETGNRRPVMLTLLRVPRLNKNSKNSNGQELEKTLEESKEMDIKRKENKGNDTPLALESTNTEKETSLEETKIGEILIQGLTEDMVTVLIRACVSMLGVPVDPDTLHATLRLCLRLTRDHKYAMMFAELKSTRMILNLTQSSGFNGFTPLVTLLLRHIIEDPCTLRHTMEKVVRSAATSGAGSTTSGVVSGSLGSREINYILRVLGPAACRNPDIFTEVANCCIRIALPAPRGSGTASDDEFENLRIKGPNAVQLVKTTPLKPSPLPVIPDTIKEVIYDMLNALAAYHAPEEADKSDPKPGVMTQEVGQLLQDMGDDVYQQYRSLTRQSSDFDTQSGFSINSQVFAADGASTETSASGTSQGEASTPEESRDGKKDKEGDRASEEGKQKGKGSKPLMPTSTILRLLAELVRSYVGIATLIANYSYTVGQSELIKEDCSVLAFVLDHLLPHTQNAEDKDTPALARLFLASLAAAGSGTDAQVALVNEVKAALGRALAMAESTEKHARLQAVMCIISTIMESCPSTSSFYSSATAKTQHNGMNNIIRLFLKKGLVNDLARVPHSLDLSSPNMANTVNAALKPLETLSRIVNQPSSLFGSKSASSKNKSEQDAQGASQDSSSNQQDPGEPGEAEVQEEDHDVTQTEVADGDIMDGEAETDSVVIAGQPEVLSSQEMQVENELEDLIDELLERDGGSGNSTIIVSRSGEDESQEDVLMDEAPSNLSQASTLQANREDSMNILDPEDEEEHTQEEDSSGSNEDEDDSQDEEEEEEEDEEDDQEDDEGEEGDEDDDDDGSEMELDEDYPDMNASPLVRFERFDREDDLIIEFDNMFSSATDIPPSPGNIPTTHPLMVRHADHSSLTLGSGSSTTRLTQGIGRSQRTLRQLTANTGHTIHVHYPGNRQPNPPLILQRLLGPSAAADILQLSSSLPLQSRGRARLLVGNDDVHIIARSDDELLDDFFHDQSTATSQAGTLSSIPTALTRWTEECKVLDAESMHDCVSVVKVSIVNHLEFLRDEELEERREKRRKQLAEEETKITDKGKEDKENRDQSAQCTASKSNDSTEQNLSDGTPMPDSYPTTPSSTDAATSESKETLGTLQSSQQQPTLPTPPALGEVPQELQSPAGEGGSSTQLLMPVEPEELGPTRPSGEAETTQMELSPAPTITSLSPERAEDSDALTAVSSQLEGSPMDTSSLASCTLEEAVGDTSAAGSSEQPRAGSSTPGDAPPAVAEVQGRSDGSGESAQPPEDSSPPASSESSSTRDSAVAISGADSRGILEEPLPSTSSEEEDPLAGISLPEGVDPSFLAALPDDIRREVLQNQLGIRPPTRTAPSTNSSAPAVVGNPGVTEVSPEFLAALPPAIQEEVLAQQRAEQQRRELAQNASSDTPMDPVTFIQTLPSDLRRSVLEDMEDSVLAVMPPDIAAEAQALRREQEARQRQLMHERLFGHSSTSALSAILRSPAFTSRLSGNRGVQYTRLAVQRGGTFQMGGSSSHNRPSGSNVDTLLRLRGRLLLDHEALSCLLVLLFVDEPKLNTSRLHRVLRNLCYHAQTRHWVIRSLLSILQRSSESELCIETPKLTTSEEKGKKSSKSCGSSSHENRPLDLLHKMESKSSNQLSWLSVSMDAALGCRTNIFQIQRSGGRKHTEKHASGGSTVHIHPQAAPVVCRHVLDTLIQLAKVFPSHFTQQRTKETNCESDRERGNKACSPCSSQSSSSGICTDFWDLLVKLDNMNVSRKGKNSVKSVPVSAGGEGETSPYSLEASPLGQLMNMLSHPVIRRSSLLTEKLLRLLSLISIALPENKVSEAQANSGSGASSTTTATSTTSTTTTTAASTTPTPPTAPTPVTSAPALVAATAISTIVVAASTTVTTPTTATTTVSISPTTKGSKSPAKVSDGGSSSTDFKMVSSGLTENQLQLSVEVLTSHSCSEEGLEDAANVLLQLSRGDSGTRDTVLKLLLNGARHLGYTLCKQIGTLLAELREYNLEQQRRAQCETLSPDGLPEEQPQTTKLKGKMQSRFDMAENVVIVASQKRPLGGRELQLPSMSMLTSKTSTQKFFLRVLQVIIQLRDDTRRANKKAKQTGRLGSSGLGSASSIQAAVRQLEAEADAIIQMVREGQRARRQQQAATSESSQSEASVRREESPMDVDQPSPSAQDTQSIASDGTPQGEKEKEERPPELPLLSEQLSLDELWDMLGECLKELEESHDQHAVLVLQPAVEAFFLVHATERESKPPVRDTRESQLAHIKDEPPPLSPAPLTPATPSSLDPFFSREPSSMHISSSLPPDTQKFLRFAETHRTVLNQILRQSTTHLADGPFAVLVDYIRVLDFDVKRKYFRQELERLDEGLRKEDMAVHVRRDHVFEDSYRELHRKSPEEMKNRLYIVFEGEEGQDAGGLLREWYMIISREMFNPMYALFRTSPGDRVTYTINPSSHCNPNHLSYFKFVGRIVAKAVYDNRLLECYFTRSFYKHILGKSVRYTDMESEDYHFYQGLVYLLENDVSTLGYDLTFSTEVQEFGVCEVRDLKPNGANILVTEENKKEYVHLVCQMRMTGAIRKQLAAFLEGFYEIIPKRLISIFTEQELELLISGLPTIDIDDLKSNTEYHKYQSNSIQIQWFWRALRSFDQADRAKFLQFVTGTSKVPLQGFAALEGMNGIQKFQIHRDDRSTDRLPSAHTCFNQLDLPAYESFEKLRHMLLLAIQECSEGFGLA
UniProt P52597: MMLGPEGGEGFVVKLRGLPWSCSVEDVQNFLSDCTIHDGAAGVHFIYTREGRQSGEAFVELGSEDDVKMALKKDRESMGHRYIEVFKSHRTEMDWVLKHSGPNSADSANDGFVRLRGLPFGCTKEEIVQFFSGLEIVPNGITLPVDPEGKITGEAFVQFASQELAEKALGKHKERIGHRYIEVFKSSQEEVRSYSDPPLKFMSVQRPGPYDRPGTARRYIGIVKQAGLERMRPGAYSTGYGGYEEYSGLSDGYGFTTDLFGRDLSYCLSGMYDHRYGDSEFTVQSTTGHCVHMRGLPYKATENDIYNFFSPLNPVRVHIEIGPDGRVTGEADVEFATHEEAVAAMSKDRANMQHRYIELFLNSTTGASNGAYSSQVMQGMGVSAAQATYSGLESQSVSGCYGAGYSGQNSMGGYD

Columns and labels:
Assay in all cases: log2 fold change, soluble protein after heating vs DMSO (PISA); higher = thermal stabilisation; K562 cells, 10 uM, 30 min; active = over 0.2 and 3.5 SD of the protein, either way, in both replicates (recomputed)
[1] = compound: CC[C@@H]1C(=O)N(C)c2cnc(Nc3ccc(C(=O)NC4CCN(C)CC4)cc3OC)nc2N1C1CCCC1
In short: (§1)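 K562 cells at 2×10^6 cells/mL were given 10 μM compound for 30 min. Aliquots then went through 3 min of heating across 48°C-58°C, were pooled, and were extracted in PBS with 0.5% NP-40 at 4°C, and the supernatant after 21,000xg for 90 min was quantified by TMTpro 16plex LC-MS/MS with channel sums equalised. Thermal stability relative to control samples, from duplicates, is given as log2 fold change.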

volasertib = compound: CC[C@@H]1C(=O)N(C)c2cnc(Nc3ccc(C(=O)N[C@H]4CC[C@H](N5CCN(CC6CC6)CC5)CC4)cc3OC)nc2N1C(C)C [volasertib]
In short: as §1

[2] = compound: CC[C@H](C)N1C=C(C2=C(C=C(C=C21)C3=CN=C(C=C3)N4CCNCC4)C(=O)NCC5=C(C=C(NC5=O)C)C)C
In short: as §1

epoxomicin = compound: CC[C@H](C)[C@@H](C(=O)N[C@@H]([C@@H](C)O)C(=O)N[C@@H](CC(C)C)C(=O)[C@]1(CO1)C)NC(=O)[C@H]([C@@H](C)CC)N(C)C(=O)C [epoxomicin]
In short: as §1

[3] = compound: CCn1c(C(=O)N(C2CC2)C2CC2)cc2c3c(ncn3C)c(Nc3cc(C)n(C)n3)nc21
In short: as §1

[4] = compound: CCn1cc(-c2ccnc3[nH]c(-c4cccc(CN(C)C)c4)cc23)c(-c2ccc(NC(=O)N(C)C)cc2)n1
In short: as §1

[5] = compound: CN(C)CC(=O)Nc1ccc2[nH]c(=O)c3ccccc3c2c1
In short: as §1

rosiglitazone = compound: CN(CCOC1=CC=C(C=C1)C[C@H]2C(=O)NC(=O)S2)C3=CC=CC=N3 (racemic) [rosiglitazone]
In short: as §1

[6] = compound: CN1C2=C(C3=C1C(=O)N(N=C3)CC4=CC(=CC=C4)N)SC(=C2)S(=O)C
In short: as §1

[7] = compound: CN1CCC(CNc2ccc3ncc(-c4cccc(OC(F)(F)F)c4)n3n2)CC1
In short: as §1

Measured: log2 fold change

HSP90AA1 isoform 2 (UniProt P07900)
inactive: [1] -0.103 | volasertib -0.044 | [2] 0.038 | epoxomicin 0.039 | [3] 0.01 | [4] -0.051 | [5] 0.007 | rosiglitazone 0.037 | [6] -0.071 | [7] 0.004

HMGN4 (UniProt O00479)
inactive: [1] -0.062 | volasertib 0.16 | [2] 0.392 | epoxomicin 0.583 | [3] 0.023 | [4] -0.293 | [5] -0.028 | rosiglitazone -0.392 | [6] 0.505 | [7] 0.268

HTRA2 (UniProt O43464)
inactive: [1] 0.007 | volasertib -0.096 | [2] -0.021 | epoxomicin -0.03 | [3] 0.011 | [4] 0.03 | [5] -0.021 | rosiglitazone -0.008 | [6] -0.024 | [7] -0.045

HSDL2 (UniProt Q6YN16)
inactive: [1] -0.015 | volasertib -0.115 | [2] 0.057 | epoxomicin 0.077 | [3] 0.013 | [4] -0.148 | [5] 0.017 | rosiglitazone 0.09 | [6] -0.055 | [7] -0.129

HGH1 (UniProt Q9BTY7)
inactive: [1] -0.055 | volasertib -0.221 | [2] 0.075 | epoxomicin 0.032 | [3] -0.137 | [4] 0.036 | [5] -0.106 | rosiglitazone 0.111 | [6] 0.144 | [7] -0.026

ICAM4 (UniProt Q14773)
inactive: [1] -0.015 | volasertib -0.07 | [2] 0.039 | epoxomicin 0.101 | [3] 0.026 | [4] -0.018 | [5] 0.122 | rosiglitazone 0.059 | [6] 0.023 | [7] -0.025

HSPA14 (UniProt Q0VDF9)
inactive: [1] -0.025 | volasertib -0.278 | [2] 0.11 | epoxomicin -0.002 | [3] -0.092 | [4] -0.046 | [5] 0.014 | rosiglitazone 0.073 | [6] 0.093 | [7] -0.113

HNRNPD (UniProt Q14103)
inactive: [1] 0.122 | volasertib 0.188 | [2] -0.016 | epoxomicin -0.185 | [3] -0.06 | [4] 0.19 | [5] -0.064 | rosiglitazone -0.076 | [6] 0.138 | [7] 0.18

HSD17B4 (UniProt P51659)
inactive: [1] 0.079 | volasertib 0.068 | [2] -0.002 | epoxomicin -0.018 | [3] 0.005 | [4] -0.015 | [5] 0.018 | rosiglitazone -0.013 | [6] -0.043 | [7] 0.069

HSPA1A (UniProt P0DMV8)
inactive: [1] -0.041 | volasertib 0.115 | [2] -0.014 | epoxomicin -0.002 | [3] 0.012 | [4] 0.013 | [5] -0.038 | rosiglitazone -0.026 | [6] 0.026 | [7] 0.035

HNRNPH1 (UniProt P31943)
active: volasertib -0.583
inactive: [1] -0.124 | [2] 0.1 | epoxomicin 0.018 | [4] -0.025 | [5] 0.072 | [6] 0.083 | [7] -0.247

HOXB9 (UniProt P17482)
inactive: [1] -0.197 | volasertib -0.231 | [2] -0.002 | epoxomicin 0.087 | [3] -0.124 | [5] 0.019 | rosiglitazone 0.163 | [6] -0.033

HNRNPM (UniProt P52272)
inactive: [1] -0.099 | volasertib -0.289 | [2] 0.105 | epoxomicin -0.153 | [3] -0.138 | [4] 0.193 | [5] -0.023 | rosiglitazone -0.121 | [6] 0.268 | [7] 0.071

ICAM1 (UniProt P05362)
inactive: [1] 0.155 | volasertib 0.078 | [2] -0.028 | epoxomicin 0.008 | [4] 0.012 | [5] -0.039 | [6] -0.073
active: [7] 0.223

HIST2H2BC (UniProt Q6DN03)
inactive: [1] 0.023 | volasertib 0.145 | [2] -0.1 | epoxomicin -0.221 | [3] 0.058 | [4] 0.395 | [5] -0.184 | rosiglitazone -0.249 | [6] 0.488 | [7] 0.196

HSP90AA4P (UniProt Q58FG1)
inactive: [1] 0.08 | volasertib -0.147 | [2] -0.013 | epoxomicin -0.105 | [3] -0.005 | [4] 0.011 | [5] -0.149 | rosiglitazone 0.088 | [6] -0.01 | [7] -0.176

HSP90B1 (UniProt P14625)
inactive: [1] -0.035 | volasertib -0.022 | [2] 0.021 | epoxomicin 0.008 | [3] 0.021 | [4] 0.015 | [5] -0.017 | rosiglitazone 0.007 | [6] -0.018 | [7] 0.042

HHEX (UniProt Q03014)
inactive: [1] 0.027 | volasertib 0.07 | [2] 0.053 | epoxomicin 0.164 | [4] 0.05 | [5] 0.234 | [6] 0.117 | [7] -0.023

HNRNPUL2 (UniProt Q1KMD3)
inactive: [1] 0.172 | volasertib 0.135 | [2] -0.023 | epoxomicin -0.084 | [4] 0.092 | [5] -0.012 | [6] 0.131 | [7] -0.013

HUWE1 (UniProt Q7Z6Z7)
inactive: [1] -0.011 | volasertib -0.089 | [2] 0.035 | epoxomicin 0.029 | [3] -0.017 | [4] -0.025 | [5] 0.011 | rosiglitazone 0.028 | [6] -0.029 | [7] -0.037

HLTF (UniProt Q14527)
inactive: [1] -0.063 | volasertib -0.178 | [2] 0.017 | epoxomicin 0.158 | [4] -0.113 | [5] 0.056 | [6] -0.009 | [7] 0.201

HSPA5 (UniProt P11021)
inactive: [1] -0.038 | volasertib 0.078 | [2] -0.069 | epoxomicin -0.002 | [3] 0.025 | [4] 0.038 | [5] -0.024 | rosiglitazone 0.004 | [6] -0.015 | [7] 0.051

HTATIP2 isoform 3 (UniProt Q9BUP3)
inactive: [1] -0.029 | volasertib -0.168 | [2] 0.035 | epoxomicin 0.008 | [4] -0.013 | [5] 0.009 | [6] -0.016 | [7] -0.148

HNRNPK isoform 2 (UniProt P61978)
inactive: [1] -0.143 | [2] 0.062 | epoxomicin 0.003 | [4] -0.027 | [5] 0 | [6] -0.01
active: volasertib -0.271 | [7] -0.216

HM13 (UniProt Q8TCT9)
inactive: [1] 0.064 | volasertib 0.047 | [2] -0.004 | epoxomicin 0.012 | [4] -0.008 | [5] -0.009 | rosiglitazone 0.009 | [7] -0.003

HSPA8 (UniProt E9PK54)
inactive: [1] 0.041 | volasertib 0.213 | [2] -0.003 | epoxomicin -0.252 | [4] 0.131 | [5] -0.06 | [6] 0.11 | [7] 0.128

HNRNPF (UniProt P52597)
inactive: [1] -0.049 | [2] 0.128 | epoxomicin 0.009 | [4] -0.027 | [5] 0.051 | [6] 0.052 | [7] -0.153
active: volasertib -0.587

HPCAL1 (UniProt P37235)
inactive: [1] -0.076 | volasertib -0.065 | [2] -0.028 | epoxomicin 0.048 | [4] 0.039 | [5] 0.019 | [6] -0.029 | [7] -0.032

Two neighbouring entries from above:
HNRNPF (UniProt P52597)
inactive: [1] -0.049 | [2] 0.128 | epoxomicin 0.009 | [4] -0.027 | [5] 0.051 | [6] 0.052 | [7] -0.153
active: volasertib -0.587

HPCAL1 (UniProt P37235)
inactive: [1] -0.076 | volasertib -0.065 | [2] -0.028 | epoxomicin 0.048 | [4] 0.039 | [5] 0.019 | [6] -0.029 | [7] -0.032
